# Measurements published in patent US20090137411A1, “Methods and biochips for detecting small molecule compounds” (priority 2004, published 2009).
# Tested on: anti-drug mouse monoclonal antibodies
# Assay: Biochip competitive immunoassay for prohibited substances in urine
# Assay type: binding
# Details: competitive immunoassay on chip
compound,measurement,value
"CN1CC[C@]23c4c5ccc(O)c4O[C@H]2[C@@H](O)C=C[C@H]3[C@H]1C5 [Morphine, morphine]",Cutoff value (the 50% inhibitory concentration),1.7 µg/L
